# Reference: PubChem BioAssay AID602313 (National Center for Advancing Translational Sciences (NCATS), 2012)
# The whole screen tested about 390,000 compounds, of which about 760 (0.19%) were called active. The inconclusive results got no clear call from the source; some entries with a clear call stand among them for comparison. Calls follow the shape of the dose curve; as a rule, active = well fitted inhibition curve with a large enough effect; inconclusive = small, poorly fitted or top-dose-only effect; inactive = flat fitted curve, though single readings scatter. Where the call is inconclusive, the potency comes from a doubtful curve fit.
# Experiment: qHTS for Inhibitors of Vif-A3F Interactions: qHTS; also: nearly all actives have a fitted effect of over 65% in size; as to activity, negative = active: % of control where 0% means no effect
# Conditions: HeLa A3F-eYFP + Vif (tagged APOBEC3F with the HIV-1 protein that degrades it), YFP fluorescence increase; series mostly up to 46.1 µM; activity, negative = active: at the top concentration
# Summary of the method: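 HeLa cells stably expressing A3F-eYFP plus Vif, plated and incubated overnight at 37 deg C, then exposed to compounds overnight at 37 deg C. Blocked degradation read as raised yellow fluorescence (Ex 488/Em 500-530).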
# Potency is read from the fitted curve at half-maximal effect.
Structure (SMILES),"activity, negative = active",Potency
COCCN1C=C(C(=O)OC)C(c2cc3c(cc2Br)OCO3)C(C(=O)OC)=C1,inactive: -0.258%,–
COc1ccc(-c2ccc3c(=O)cc(-c4ccsc4)oc3c2)cn1,–,"inconclusive: 35.5 µM [inhibitor, single point]"
COc1ccc(-c2nc(CSCC(=O)NCCCN3CCCC3=O)c(C)o2)cc1OC,inactive: 3.18%,–
CC(CCc1ccccc1)NC(=S)NC(=O)c1ccco1 (stereo not drawn),–,"inconclusive: 28.2 µM [inhibitor, single point]"
O=C(Nc1nnc(C2=COCCO2)o1)c1cccc(C(F)(F)F)c1,–,"inconclusive: 25.1 µM [inhibitor, single point]"
Cc1nnc(NN)n(N)c1=O,inactive: -3.09%,–
CC(C(=O)NCc1ccccc1)N1C(=O)c2ccccc2C1=O (stereo not drawn),–,"inconclusive: 3.55 µM [inhibitor, single point]"
Cc1sc(NC(=O)CN2CCCC2)nc1-c1ccc2c(c1)CCN2C(=O)c1cccc(F)c1,–,"inconclusive: 35.5 µM [inhibitor, single point]"
CC1(C)Cc2c(C#N)c(NCCc3ccccc3)nc(-c3ccco3)c2CO1,–,"inconclusive: 31.6 µM [inhibitor, single point]"
CCOc1ncccc1C(=O)OCc1ccccc1,–,"inconclusive: 20 µM [inhibitor, single point]"
O=C(Nc1ccc(OC(F)(F)F)cc1)C1CCCN(S(=O)(=O)c2cccc3nonc23)C1 (stereo not drawn),–,"inconclusive: 22.4 µM [inhibitor, single point]"
O=C1c2cccc3c(N4CCCCC4)ccc(c23)C(=O)N1c1cccc(O)c1,–,active: 3.98 µM
CCn1nnc(NC(=S)NC(=O)c2ccc(-c3cccc(Cl)c3)o2)n1,–,"inconclusive: 3.16 µM [inhibitor, partial curve, poor fit]"
Cc1cc2c(cc1C)NC(CC(=O)NCc1ccccc1)C(=O)N2 (stereo not drawn),–,active: 28.2 µM
COc1ccc(NC(=O)Nc2cccc(Cl)c2Cl)c(OC)n1,–,"inconclusive: 3.55 µM [inhibitor, full curve]"
COc1cccc(C2C3=C(N=c4s/c(=C\c5ccc(O)cc5)c(=O)n42)c2ccccc2CC3)c1OC (stereo not drawn),–,"inconclusive: 35.5 µM [inhibitor, single point]"
Cc1cc(C(=O)CN2C(=O)NC3(CCCCC3)C2=O)c(C)n1Cc1ccco1,–,"inconclusive: 2.24 µM [inhibitor, partial curve, poor fit]"
CC(/C=C/c1ccc2c(c1)OCO2)=N/NC(=O)COc1ccc(C)cc1,–,"inconclusive: 6.31 µM [inhibitor, single point]"
COc1ccc(-n2c(-c3ccc(Cl)cc3)c[n+]3c2CCc2ccccc2-3)cc1,inactive: -33.1%,–
CC(NC(=O)CN(Cc1ccccc1)S(=O)(=O)c1ccccc1)c1cccnc1 (stereo not drawn),–,"inconclusive: 35.5 µM [inhibitor, single point]"
O=C(CCCn1c(SCC(=O)c2ccc(O)c(O)c2)nc2ccccc2c1=O)NCC1CCCO1 (stereo not drawn),inactive: -4.22%,–
COc1ccc(-c2ccc(CN3C(C)C(=O)N(Cc4cn(CCC5OCCO5)nn4)CCS3(=O)=O)cc2)cc1 (stereo not drawn),inactive: -13.8%,–
CCN(CC)S(=O)(=O)c1cccc(C(=O)N/N=C(\C)c2ccc(O)cc2O)c1,–,"inconclusive: 22.4 µM [inhibitor, single point]"

Structure (SMILES),"activity, negative = active",Potency
CCOC(=O)N1CCN(C(=S)NC(=O)/C=C/c2ccc(C)cc2)CC1,–,"inconclusive: 35.5 µM [inhibitor, single point]"
O=C(CSc1nc2ccccc2[nH]1)c1ccc(Cl)s1,inactive: 0.395%,–
O=c1oc2ccccc2cc1-c1nc2c(s1)CCCC2,inactive: -9.63%,–
Cn1cnc([N+](=O)[O-])c1Oc1ccc2ccccc2c1,–,"inconclusive: 35.5 µM [inhibitor, single point]"
CC(C)OCCCn1c(=O)c2ccccc2n2c(-c3cc(Cl)ccc3O)nnc12,inactive: 0.15%,–
COC(=O)c1ccc(COc2ccccc2/C=C(\C#N)C(=O)Nc2c(C)cc(C)cc2C)cc1,–,"inconclusive: 17.8 µM [inhibitor, partial curve, poor fit]"
CC(C)OC(=O)c1ccc(NCc2cc(O)ccc2O)cc1Cl,–,"inconclusive: 15.8 µM [inhibitor, partial curve, poor fit]"
O=[N+]([O-])c1cccc(S(=O)(=O)Nc2ccc(S(=O)(=O)Nc3nccs3)cc2)c1,inactive: 5.2%,–
CC(C)CC(COCc1ccc(Cl)cc1)N1CCN(C(=O)c2cccc(C(F)(F)F)c2)CCC1=O (stereo not drawn),inactive: -4.01%,–
CC(C)(C)S(=O)(=O)c1cnc(-c2ccc(Cl)cc2)nc1N,inactive: -6.32%,–
Cc1ccc2nc(SCC(=O)c3ccc4c(c3)NC(=O)CO4)[nH]c2c1,–,"inconclusive: 35.5 µM [inhibitor, single point]"
O=C(NCc1ccco1)c1nn2c(C(F)(F)F)cc(-c3cccs3)nc2c1Br,–,"inconclusive: 35.5 µM [inhibitor, single point]"
O=C(CCc1ccccc1)NC(=S)Nc1cc(C(F)(F)F)ccc1N1CCOCC1,–,"inconclusive: 35.5 µM [inhibitor, single point]"
CN(C)c1ccc(/C=C(\C#N)C(=O)c2ccccc2)cc1,–,"inconclusive: 35.5 µM [inhibitor, single point]"
CCN(CC)CCN(C(=O)c1ccc2c(c1)CCCC2)c1nc2ccc(C)cc2s1,–,"inconclusive: 6.31 µM [inhibitor, single point]"
COc1ccc(N2C(=O)C(C)(C)C2c2c(O)ccc3ccccc23)cc1 (stereo not drawn),–,"inconclusive: 12.6 µM [inhibitor, partial curve, poor fit]"
CCC(C)Sc1cccc(-c2nc3ccc(C)cn3c2NC2CCCCC2)c1 (stereo not drawn),–,"inconclusive: 20 µM [inhibitor, single point]"
O=S(=O)(c1ccccc1)N1CCN(c2nc(-c3cccnc3)nc3ccccc23)CC1,–,"inconclusive: 35.5 µM [inhibitor, single point]"
N#CC1=C(c2ccc(-c3ccccc3)cc2)COC1=O,–,"inconclusive: 22.4 µM [inhibitor, single point]"
O=C(c1cc(-c2ccccn2)nc2ccc(Br)cc12)N1CCN(S(=O)(=O)c2ccccc2)CC1,–,"inconclusive: 1.78 µM [inhibitor, partial curve, poor fit]"
CC1CCCC/C1=N\NC(=S)Nc1ccccc1 (stereo not drawn),–,"inconclusive: 25.1 µM [inhibitor, single point]"
Cc1cccc(NC(=S)NC(=O)c2ccc(-c3ccccc3)cc2)n1,inactive: 2.21%,–
CCn1c(C(=O)N2CCCC(C(=O)N3CCN(c4ccccc4)CC3)C2)cc2sccc21 (stereo not drawn),inactive: -12.4%,–

# Single entries from the list:
# Potency, O=C(c1cc(-c2ccccn2)nc2ccc(Br)cc12)N1CCN(S(=O)(=O)c2ccccc2)CC1 reads inconclusive: 1.78 µM [inhibitor, partial curve, poor fit]
# activity, negative = active, O=[N+]([O-])c1cccc(S(=O)(=O)Nc2ccc(S(=O)(=O)Nc3nccs3)cc2)c1 reads inactive: 5.2%
# Potency, CC1CCCC/C1=N\NC(=S)Nc1ccccc1 (stereo not drawn) reads inconclusive: 25.1 µM [inhibitor, single point]
# activity, negative = active, CCn1c(C(=O)N2CCCC(C(=O)N3CCN(c4ccccc4)CC3)C2)cc2sccc21 (stereo not drawn) reads inactive: -12.4%

# Continuation.

Structure (SMILES),"activity, negative = active",Potency
N#CC1=C(N)Oc2c(sc3ccccc23)C1c1ccco1 (stereo not drawn),–,"inconclusive: 17.8 µM [inhibitor, partial curve, poor fit]"
FC(F)(F)c1ccc2c(c1)N1CCCC1CN2 (stereo not drawn),–,"inconclusive: 10 µM [inhibitor, partial curve, poor fit]"
N=c1c(C(=O)NC2CCCC2)cc2c(=O)n3ccccc3nc2n1C1CCCCC1,–,"inconclusive: 0.562 µM [inhibitor, full curve, poor fit]"
Cc1nc(SCc2ccc(O)c([N+](=O)[O-])c2)c([N+](=O)[O-])[nH]1,inactive: -2.02%,–
Cc1ccc(S(=O)(=O)NCC(Nc2cccc(Cl)c2)c2ccccc2)cc1 (stereo not drawn),inactive: 0.144%,–
CN(c1nc2ccccc2[nH]c1=O)C1CCCCC1,–,"inconclusive: 22.4 µM [inhibitor, partial curve, poor fit]"
CC1=CC(C)(C)Nc2ccc(OC(=O)CN3C(=O)CCC3=O)cc21,–,"inconclusive: 35.5 µM [inhibitor, single point]"
Cc1cc(C)cc(NC(=S)NCCSc2ccc(Cl)cc2)c1,–,"inconclusive: 22.4 µM [inhibitor, single point]"
N#Cc1c(-c2ccc(F)cc2)c2c([nH]c1=O)-c1ccccc1OC2,inactive: -17.3%,–
CC(=O)C1=C(C)N=c2s/c(=C/c3ccc4c(c3)OCO4)c(=O)n2C1c1ccc(N(C)C)cc1 (stereo not drawn),inactive: -16%,–
Cc1c(CN2CCCC(CO)(Cc3cccc(Cl)c3)C2)cnn1C (stereo not drawn),–,"inconclusive: 11.2 µM [inhibitor, partial curve]"
COc1cccc(C2c3cc4c(cc3OC(N3CCOCC3)C2C)OCO4)c1O (stereo not drawn),inactive: -2.59%,–
CC(=O)NC1=NC(=O)/C(=C/c2cc(C)n(-c3ccc(NC(C)=O)cc3)c2C)S1,–,"inconclusive: 3.55 µM [inhibitor, full curve, poor fit]"
COc1ccc(-c2nn(-c3ccccc3)cc2/C=C2/SC(=S)N(CCC(=O)O)C2=O)cc1,–,"inconclusive: 28.2 µM [inhibitor, single point]"
O=C1N/C(=C/c2ccc(N3CCCC3)cc2)C(=O)N1c1ccccc1,–,"inconclusive: 31.6 µM [inhibitor, single point]"
c1ccc(-c2cc(-c3nnc4n3N=C(c3ccc5ccccc5c3)CS4)[nH]n2)cc1,–,"inconclusive: 17.8 µM [inhibitor, single point]"
CN(C)S(=O)(=O)Oc1ccsc1C(=O)Nc1ccc(Cl)c(Cl)c1,inactive: -2.79%,–
COc1cccc(/C=N/Nc2ncnc(Cl)c2N)c1O,–,"inconclusive: 22.4 µM [inhibitor, single point]"
CCOc1ccc(Nc2nc(N)nc(CN(C)C3CCCCC3)n2)cc1,inactive: -1.16%,–
O=[N+]([O-])c1ccc(Nc2ccccc2)c2nonc12,–,"inconclusive: 25.1 µM [inhibitor, single point]"
COc1ccc(C(CNC(=O)COc2cc(C)ccc2Cl)N2CCCCC2)cc1 (stereo not drawn),–,"inconclusive: 6.31 µM [inhibitor, single point]"
C=CCn1c(=O)/c(=C/c2ccc(O)cc2)s/c1=C(/C#N)c1nnc2n1CCCCC2,–,"inconclusive: 10 µM [inhibitor, partial curve]"
